In publication PMC12508687, “Elucidating the Role and Mechanism of Alpha‐Enolase in Senescent Amelioration via Metabolic Reprogramming” (Cell Proliferation, 2025):
No constants are given. Whether binding was seen depends on the method and setting. Binding seen in cells or lysates may run through a third protein. Some results given as binding are weak or reduced against the parent protein; the word gives no strength.

Protein sequences, listed by entry. Tags and fused reporters are not part of them. Lines headed by an entry give the natural chain unless they say otherwise; changes in a name come on top. Chains listed by the source or under a name are the forms on record and can include a tag or linker. Residues count along the entry.
UniProt P14618: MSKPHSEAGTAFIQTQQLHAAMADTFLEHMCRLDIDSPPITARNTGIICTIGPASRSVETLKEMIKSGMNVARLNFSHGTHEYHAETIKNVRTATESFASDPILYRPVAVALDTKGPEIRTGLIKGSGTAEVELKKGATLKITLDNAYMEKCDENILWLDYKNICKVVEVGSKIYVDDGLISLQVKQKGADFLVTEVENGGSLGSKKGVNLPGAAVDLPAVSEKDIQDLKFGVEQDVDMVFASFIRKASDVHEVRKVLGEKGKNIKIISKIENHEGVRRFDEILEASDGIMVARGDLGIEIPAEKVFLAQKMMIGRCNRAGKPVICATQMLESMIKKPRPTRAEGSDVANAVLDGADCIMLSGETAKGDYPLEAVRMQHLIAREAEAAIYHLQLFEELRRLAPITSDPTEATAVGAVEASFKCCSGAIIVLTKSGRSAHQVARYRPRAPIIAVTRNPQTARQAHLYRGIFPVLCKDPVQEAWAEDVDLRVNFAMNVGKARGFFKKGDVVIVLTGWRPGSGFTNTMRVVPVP
UniProt P06733: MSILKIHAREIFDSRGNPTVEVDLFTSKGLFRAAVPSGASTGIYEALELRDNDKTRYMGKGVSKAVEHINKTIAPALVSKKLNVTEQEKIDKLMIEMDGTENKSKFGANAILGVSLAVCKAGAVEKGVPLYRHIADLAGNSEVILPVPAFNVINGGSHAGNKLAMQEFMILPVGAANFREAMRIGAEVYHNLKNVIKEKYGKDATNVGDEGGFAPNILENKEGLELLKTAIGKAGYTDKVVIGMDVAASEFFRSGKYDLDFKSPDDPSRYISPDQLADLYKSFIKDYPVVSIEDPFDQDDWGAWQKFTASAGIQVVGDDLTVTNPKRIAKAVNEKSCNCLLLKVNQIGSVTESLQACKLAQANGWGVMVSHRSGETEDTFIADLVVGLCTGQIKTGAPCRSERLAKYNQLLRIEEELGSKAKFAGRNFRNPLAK
Myc-tagged ENO1 (alpha-enolase): residues 2-434 of P06733

Tests used:
[1] = target: Myc-tagged PKM (pyruvate kinase M) (UniProt P14618); assay: co-IP; HEK293T cells transfected with pCMV-Myc-PKM or pCMV-Myc-ENO1, treated with DMSO or KB2764, immunoprecipitated with Myc-tag antibody; endogenous partner detected by immunoblot
[2] = target: Myc-tagged ENO1 (alpha-enolase) (UniProt P06733); assay: as above

Question: With “endogenous ENO1 (alpha-enolase) (from UniProt P06733 1-434) (enzyme)” as the substance, how does the binding [1] read?
Answer: binds

Question: With “endogenous PKM (pyruvate kinase M) (from UniProt P14618 1-531) (enzyme)” as the substance, how does the binding [2] read?
Answer: binds
